PubChem BioAssay AID1671190 (National Center for Advancing Translational Sciences (NCATS), 2021)
Values joined by “and” are separate entries in the source; they are usually repeats but may differ in a detail not shown here. Equal entries are not always repeated. Screen size: about 580,000 compounds; about 6,100 (1.1%) were called active. Inconclusive means that the source gave no clear call. Such entries were picked first, then a sample of the others. The call rests on the fitted dose curve; in most records, active means well fitted inhibition curve with a large enough effect; inconclusive means small, poorly fitted or top-dose-only effect, or another doubt; inactive means no such curve, though single readings can be large or run the other way. A potency beside an inconclusive call is a rough fit, not a confirmed value.

By UniProt entry, the sequences of proteins in these tests, tags left out.
UniProt P18054, whole entry, looked up: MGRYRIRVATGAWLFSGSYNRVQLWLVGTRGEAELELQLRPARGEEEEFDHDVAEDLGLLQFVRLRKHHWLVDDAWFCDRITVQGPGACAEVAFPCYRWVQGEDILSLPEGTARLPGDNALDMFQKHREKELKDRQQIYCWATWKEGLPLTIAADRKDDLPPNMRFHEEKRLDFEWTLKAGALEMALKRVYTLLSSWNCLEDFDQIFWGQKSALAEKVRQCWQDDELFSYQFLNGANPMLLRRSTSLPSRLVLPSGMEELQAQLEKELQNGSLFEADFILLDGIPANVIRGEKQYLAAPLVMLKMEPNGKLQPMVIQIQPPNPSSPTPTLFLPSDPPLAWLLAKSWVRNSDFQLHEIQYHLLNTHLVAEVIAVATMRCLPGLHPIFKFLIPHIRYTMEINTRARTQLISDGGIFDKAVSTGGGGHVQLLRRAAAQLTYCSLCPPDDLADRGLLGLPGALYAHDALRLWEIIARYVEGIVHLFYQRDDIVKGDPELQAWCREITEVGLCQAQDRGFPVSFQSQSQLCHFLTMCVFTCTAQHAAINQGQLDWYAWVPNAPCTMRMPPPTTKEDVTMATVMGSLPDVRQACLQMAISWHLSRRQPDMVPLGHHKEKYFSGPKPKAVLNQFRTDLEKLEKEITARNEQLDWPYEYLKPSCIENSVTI

target: Polyunsaturated fatty acid lipoxygenase ALOX12 (Homo sapiens) (UniProt P18054); assay: Primary qHTS assay for inhibitors of human arachidonate 12S-lipoxygenase (ALOX12): Round 2; conditions: purified 12hLO, xylenol orange hydroperoxide absorbance; activity change, negative = inhibition: at 108 µM (top of the series) unless noted
Summary of the method: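 Purified human 12hLO (150 nM final) in 25 mM Hepes, 0.01% Triton X-100, pH 7.0 was preincubated 15 min at room temperature with compound. Then 40 uM arachidonic acid was added, 30 min. Hydroperoxide was read by Fe-XO absorbance ratio 573/405 nm.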
On the % scale 0 is the no-effect control and ±100 the full control effect; potency means the concentration at half of the fitted maximal effect.

Structure (SMILES) | Potency | activity change, negative = inhibition
Cc1sc(C(C2C(=O)CC(C)(C)CC2=O)C2C(=O)CC(C)(C)CC2=O)cc1[N+](=O)[O-] | inconclusive: 22.4 µM [inhibitor, partial curve] | 
Cc1cc(C)n(C(=O)CSc2nnc(SCC(=O)n3nc(C)cc3C)s2)n1 | inconclusive: 44.7 µM [inhibitor, partial curve, poor fit] | 
N#Cc1cccc(-c2ccnc(N[C@H]3CO[C@H]4[C@@H]3OC[C@@H]4NC(=O)c3ccccc3)n2)c1 |  | inactive: 36.1% [at 176 µM]
NC(=O)C1CCN(C(=O)CCc2nc3sc4c(c3c(=O)[nH]2)CCCC4)CC1 | active: 17.8 µM and inconclusive: 63.1 µM [inhibitor, partial curve, poor fit] | 
O=C(NN1C(=O)CSC1=S)C(=O)NN1C(=O)CSC1=S |  | inactive: -6.16%
COc1ccc(Cl)cc1NC(=O)CCc1ncc(-c2ccccc2F)o1 |  | inactive: -26.4%
CCNC(=O)/C(=C\c1ccccc1)NC(=O)/C=C/c1ccccc1 |  | inactive: 6.33%
Cc1ccc(S(=O)(=O)N2[C@@H](c3cccc(Cl)c3)C(C(=O)O)=CC[C@H]2c2ccc(Cl)c(Cl)c2)cc1 | inconclusive: 50.1 µM [inhibitor, partial curve, poor fit] | 
CCn1c2c(c(=O)n1-c1ccccc1)CCN(C(=O)Cc1ccc3c(c1)OCO3)C2 |  | inactive: -10.2% [at 176 µM]
OC1(c2ccccc2)CC(c2ccccc2)c2ccccc2O1 (stereo unspecified) | inconclusive: 100 µM [inhibitor, partial curve, poor fit] | 
CCC1(C)Cc2c(sc3[nH]c(=S)n(Cc4ccccc4)c(=O)c23)CO1 (stereo unspecified) | active: 28.2 µM | 
CCCC(C)N(C)Cc1nnc(-c2ccc(Br)s2)o1 (stereo unspecified) |  | inactive: 16.8%
O=C(NCCSCc1ccsc1)C1CCC1 | inconclusive: 100 µM [inhibitor, single point] | 
COc1ccc(C2CC(C(F)(F)F)n3nc(C(=O)O)c(Cl)c3N2)cc1OC (stereo unspecified) | inconclusive: 35.5 µM [inhibitor, full curve, poor fit] | 
COc1ccc(C(C(=O)NC2CCCC2)N(C(=O)c2snc(C(N)=O)c2N)c2cc(C)ccc2OC)cc1OC (stereo unspecified) |  | inactive: -3.42%
CC1SC(c2ccc(F)cc2)N(CCc2ccccc2)C1=O (stereo unspecified) | inconclusive: 89.1 µM [inhibitor, partial curve, poor fit] | 
Cc1cc(C)c(S(=O)(=O)NCCc2cc3cc(C)c(C)cc3[nH]c2=O)c(C)c1 | inconclusive: 50.1 µM [inhibitor, partial curve, poor fit] | 
Cc1ccc(F)cc1S(=O)(=O)N[C@@H]1CN(c2ncccn2)C[C@H]1CN(C)C |  | inactive: 15.1%
O=C(Nc1cccc(-c2ccc(F)cc2)c1)C1CCCN1C(=O)C1CCOCC1 (stereo unspecified) |  | inactive: 41.1%
O=C(c1ccccc1)c1ccc2n1CCC2C(=O)Nc1ccc(C(F)(F)F)cc1 (stereo unspecified) |  | inactive: -23.9%
Fc1ccc(C2=Nn3c(nnc3-c3ccccn3)SC2)cc1 | inconclusive: 35.5 µM [inhibitor, single point] | 
Fc1ccc(CNC(=S)Nc2ccc(Nc3ccccc3)cc2)cc1 | inconclusive: 39.8 µM [inhibitor, partial curve, poor fit] | 

Structure (SMILES) | Potency | activity change, negative = inhibition
COc1ccccc1CCNC(=O)C(=O)NCC1OCCN1S(=O)(=O)c1ccc(C)cc1 (stereo unspecified) |  | inactive: 1.55%
CCOC(=O)c1c(-c2ccc(C)o2)csc1NC(=S)NC(=O)c1cccs1 | inconclusive: 35.5 µM [inhibitor, partial curve, poor fit] | 
CCCC[C@@H]1CNC(=O)C(=O)N1CCc1cccc(F)c1 | inconclusive: 39.8 µM [inhibitor, partial curve, poor fit] | 
Oc1cc2c(cc1O)[C@H]1c3ccc(O)c(O)c3OC[C@@]1(O)C2 | inconclusive: 8.91 µM [inhibitor, full curve] | 
COC(=O)c1[nH]c2ccc(C)cc2c1NC(=O)CN1CCN(c2ccccc2)CC1 |  | inactive: -6.92%
COCCN(CC1CCCN(C2Cc3ccccc3C2)C1)C(=O)CCC(F)(F)F (stereo unspecified) | inconclusive: 112 µM [inhibitor, single point] | 
O=C(O)c1ccc(-c2ccc(Cl)cc2Cl)o1 | inconclusive: 50.1 µM [inhibitor, partial curve, poor fit] | 
CC(OC(=O)c1cc(O)c2ccccc2c1O)C(=O)Nc1ccc(C(N)=O)cc1 (stereo unspecified) | inconclusive: 7.94 µM [inhibitor, full curve, poor fit] | 
CCOc1ccc2c(c1)-c1c(ssc1=S)C(C)(C)N2C | inconclusive: 28.2 µM [inhibitor, partial curve, poor fit] | 
CCOc1ccccc1NC(=O)CSc1nc2c(oc3ccccc32)c(=O)n1C(C)C | inconclusive: 0.224 µM [inhibitor, full curve, poor fit] | 
N#CC1=C(N)Oc2cc(N)ccc2C1c1ccc(F)cc1F (stereo unspecified) | inconclusive: 70.8 µM [inhibitor, single point] | 
O=C(CN1CCN(S(=O)(=O)N2CCCC2)CC1)NCc1ccccc1F | inconclusive: 8.91 µM [inhibitor, full curve, poor fit] | 
O=S(=O)(Nc1cccc2ccccc12)c1cccc2nonc12 | inconclusive: 35.5 µM [inhibitor, single point] | 
COCCN1C(=O)c2cccn2CC1CNS(=O)(=O)c1ccccc1 (stereo unspecified) |  | inactive: 26%
COc1cccc(C(=O)Nc2ccc3oc(-c4cccc(I)c4)nc3c2)c1 | inconclusive: 79.4 µM [inhibitor, partial curve, poor fit] | 
N#CC(c1ccc(O)cc1)c1ncc(C(F)(F)F)cc1Cl (stereo unspecified) | inconclusive: 100 µM [inhibitor, single point] | 
CC(=O)OC/C=C/c1ccccc1 |  | inactive: 5.07% [at 176 µM]
CN(C)c1ccc(NC(=O)CN2CCC(N3CCCCC3)CC2)cc1 | inconclusive: 0.447 µM [inhibitor, full curve, poor fit] | 
Cc1ccc(-n2nc(C)c([C@@H]3C=C[C@@H](NC(=O)c4cccs4)C3)c2C)cc1Cl | inconclusive: 14.1 µM [inhibitor, full curve] | 
CC(=O)OCC1OC(Oc2ccc(C(=O)Cc3ccc4c(c3)OCCO4)c(O)c2)C(OC(C)=O)C(OC(C)=O)C1OC(C)=O (stereo unspecified) | inconclusive: 100 µM [inhibitor, single point] | 
COc1cc(S(=O)(=O)Nc2ccc(C)cc2)ccc1N=Cc1c(C)c(C#N)c(=O)n(C)c1O | inconclusive: 8.91 µM [inhibitor, full curve, poor fit] | 
CN(C)S(=O)(=O)N(CC(=O)Nc1ccc(Cl)c(Cl)c1)c1ccccc1 | inconclusive: 15.8 µM [inhibitor, full curve, poor fit] | 

Structure (SMILES) | Potency | activity change, negative = inhibition
CC1=C(C(=O)OC(C)C)C(c2ccsc2)NC(=O)N1C (stereo unspecified) |  | inactive: 1.32%
COC(=O)C1(C(F)(F)F)N=C(N2CCOCC2)Oc2c1c(C)nn2-c1ccccc1 (stereo unspecified) | inconclusive: 15.8 µM [inhibitor, single point] | 
CCc1ccc(C2C=C(c3ccccc3)Nc3nnnn32)cc1 (stereo unspecified) | inconclusive: 6.31 µM [inhibitor, full curve] | 
CN(c1ccc(Cl)cc1)c1cc2c(c3c1ccn3C)C1CCC2O1 (stereo unspecified) | inconclusive: 20 µM [inhibitor, full curve, poor fit] | 
CCN(C(=O)Cn1c(=O)oc2ccccc21)c1cccc(C)c1 |  | inactive: 388%
CCOC(=O)N1CCN(C2=C(NS(=O)(=O)c3ccc(Br)cc3)C(=O)c3ccccc3C2=O)CC1 | inconclusive: 15.8 µM [inhibitor, partial curve, poor fit] | 
COc1ccc(NC(=O)CN(c2ccc(OC)cc2)S(=O)(=O)c2ccc(OC)c(OC)c2)cc1 | inconclusive: 50.1 µM [inhibitor, partial curve, poor fit] | 
COc1cccc(OC)c1NC(=O)c1nc2c(nnn2Cc2ccccc2Cl)c(=O)[nH]1 |  | inactive: 1.54%
O=C(CN(Cc1ccc(F)cc1)C(=O)CCC(=O)Nc1ccccn1)NCc1ccco1 | inconclusive: 35.5 µM [inhibitor, single point] | 
Cc1c(C(=O)Nc2ccc(F)cc2F)oc2ccc3c(c12)C(=O)CC(C)(C)O3 | inconclusive: 63.1 µM [inhibitor, partial curve, poor fit] | 
CCOC(=O)C1=C(N)Oc2cc(O)ccc2C1c1cccc(Cl)c1 (stereo unspecified) | inconclusive: 112 µM [inhibitor, single point] | 
CCOc1ccc(NC(=S)Nc2ccc3nsnc3c2)cc1 | inconclusive: 35.5 µM [inhibitor, partial curve, poor fit] | 
Cc1ccc(NC(=O)C2Cn3cccc3C(=O)N2)cc1F (stereo unspecified) |  | inactive: -13.6%
Cc1ccc(CNC(=O)c2c(O)nc3ccccn3c2=O)cc1 | inconclusive: 1.26 µM [inhibitor, full curve, poor fit] | 
CCOC(=O)[C@]12CCC=C1N(Cc1ccc(Cl)cc1Cl)C(=O)[C@H](CC(=O)N1CCCCC1)C2 |  | inactive: -17.6%
COc1ccccc1C(C)NC(=O)Cc1n[nH]c(=O)c2ccccc12 (stereo unspecified) |  | inactive: -20.3%
O=C1CSc2ccc(S(=O)(=O)NCc3ccccc3Cl)cc2N1 |  | inactive: 1.95%
S=C(NCc1ccc(Cl)cc1)Nc1cccc2ccccc12 | inconclusive: 44.7 µM [inhibitor, partial curve, poor fit] | 
COc1ccccc1N1CC=C(c2cccc([N+](=O)[O-])c2)NC1=O |  | inactive: 0%
Cc1cc(-c2ccc(C)c(S(=O)(=O)NC(C)Cc3ccco3)c2)on1 (stereo unspecified) | inconclusive: 79.4 µM [inhibitor, partial curve, poor fit] | 
Cc1ccc(S(=O)(=O)Oc2cccc(/C=N/n3cnnc3)c2)cc1 |  | inactive: -15.5%
CCOc1ccc(C(=O)NC2CCCN(c3cc(-c4ccccc4)[nH]n3)C2)cc1OCC (stereo unspecified) |  | inactive: 33.9%

Three entries from above, sorted by length of the SMILES, smallest number first.
Structure (SMILES) | Potency | activity change, negative = inhibition
S=C(NCc1ccc(Cl)cc1)Nc1cccc2ccccc12 | inconclusive: 44.7 µM [inhibitor, partial curve, poor fit] | 
CN(c1ccc(Cl)cc1)c1cc2c(c3c1ccn3C)C1CCC2O1 (stereo unspecified) | inconclusive: 20 µM [inhibitor, full curve, poor fit] | 
COc1ccc(NC(=O)CN(c2ccc(OC)cc2)S(=O)(=O)c2ccc(OC)c(OC)c2)cc1 | inconclusive: 50.1 µM [inhibitor, partial curve, poor fit] | 
